## Results of single-concentration screens

Source: ChEMBL document CHEMBL3988442, “University of Dundee, Small-Polar-MMV Screening Library” (2021).

The filed quantity is “Percent Effect” (%).
The record does not define 0% and 100%; most values in the screen are far below 50% and negative numbers occur (in some assays of this library far below -100).
This is an unselected part of the compounds tested.
Two or more numbers in one place are separate tests of the same structure; such repeats can differ widely.

Mtb glucose medium: 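Growth of Mycobacterium tuberculosis over 3 days (7H9 medium with glucose and tyloxapol); the read-out is not stated. Compounds at 50 µM. Higher reads as more growth inhibition (inferred: compounds with an IC50 in retests scored well above the rest). Size under these conditions: about 69,000 compounds, about 760 of them at 50% or above in at least one test.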
Mtb cholesterol medium: 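Whole-cell growth test on Mycobacterium tuberculosis, read after 4 days in a medium based on cholesterol and the lipid DPPC; the read-out is not stated. Compounds at 50 µM. Higher reads as more growth inhibition (inferred: compounds with an IC50 in retests scored well above the rest). Of about 69,000 compounds tested this way, about 370 (0.54%) reached 50% or more in at least one test.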

| structure | Mtb glucose medium | Mtb cholesterol medium |
|---|---|---|
| `O=C(c1ccco1)N1CC[C@@H](N2CCOCC2)[C@@H]1Cc1ccccc1` | -8.373% | -6.863% and -12.57% |
| `CN1CCC(N(C)C(=O)c2cnn(-c3cc(F)ccc3F)c2N)CC1` | 2.678% | -26.71% |
| `Cc1cc(NC(=O)CN2C(=O)CC(C)(C)c3ccccc32)no1` | -18.61% | -4.854% |
| `O=C(CCc1cnn(-c2ccccc2)c1)N1CCCC(n2cccn2)C1` (centres undefined) | -0.002303% | 2.741% |
| `Cc1ccc(CN2CCCn3c(nc(Cn4cncn4)cc3=O)C2)s1` | -1.098% | -26.78% |
| `CCCn1cc(C(=O)NCCc2ccncc2)c(C)n1` | -1.588% | -13.86% |
| `O=C(NCC1(O)CCOc2ccccc21)Nc1ccc2c(c1)OCO2` (centres undefined) | -18.25% | 30.43% |
| `Cc1cccc(NC(=O)[C@@H]2CCCN2Cc2nnc(C(C)C)n2C)n1` | 27.93% | 7.016% and -13.3% |
| `COc1ccccc1C1CC(=O)Nc2c1c(=O)[nH]n2C(C)C` (centres undefined) | -21.44% and 2.794% | -1.845% |
| `COCCOCC(=O)N(Cc1cccc(C)c1)C(C)C` | 29.09% | -2.142% |
| `Cl.Cn1nc(C2CCCN(Cc3ccc(F)cc3)C2)c2nccnc21` (centres undefined) | 2.272% | 0.6337% |
| `COC(=O)C(C)(C)NC(=O)C1CC(=O)N(CC2CC2)C1` (centres undefined) | -4.261% | 6.713% |
| `CN(C)CCNC(=O)c1ccn(-c2ccc3ccccn23)n1.O=C(O)C(F)(F)F` | 60.45% | 21.9% |
| `O=C1C(n2nnc(-c3ccsc3)n2)CCN1CC(F)(F)F` (centres undefined) | 29.14% | 17.1% |
| `CO[C@@H]1CN(c2ccccc2)S(=O)(=O)[C@@]12CCN(C(=O)N(C)C)C2` | 25.82% | 9.909% |
| `COc1ccc(OC2CCN(C(=O)c3ccc(C(C)=O)s3)CC2)cc1` | -2.077% and 4.786% | -23.55% |
| `Cc1ccc(S(=O)(=O)NC[C@H]2OC[C@@H](NCc3ccncc3)[C@@H]2O)cc1` | -5.963% and 11.97% | -8.095% |
| `COc1cccc2c1OCC(CNC(=O)COCC(F)(F)C(F)F)C2` (centres undefined) | 15.77% and 0.5265% | 13.26% and 1.449% |
| `COCCN1CCC2(CC1)CN(C(C)=O)c1ccc(C)cc12.O=C(O)C(F)(F)F` | -32.54% | -23.33% |
| `Cc1nc(CN2CCC3(CCCO3)CC2)c2ccccn12` | -12.77% | 0.6861% |
| `CC(=O)N1CCC(CSCc2ccco2)CC1` | 1.972% | 1.444% |
| `CN(Cc1ccc(F)cc1)C(=O)NCc1nnc2n1CCC2` | 1.417% and -2.318% | -0.836% |
| `Cn1cc(C(=O)N2CCCC(Cc3cnccn3)C2)cn1` (centres undefined) | -23.46% | -20.94% |
| `CCc1nn(C)c(Cl)c1CN(CC)Cc1cnn(CC)c1` | -31.13% | -9.248% |
| `Cc1nn2cccnc2c1C(=O)N1CCCC(n2ccnc2C)C1` (centres undefined) | 7.428% | -3.542% |
| `Cc1nnc(CN2CCCC(CCc3ccccc3C(F)(F)F)C2)o1` (centres undefined) | 33.46% | 32.93% |
| `O=C(Cc1ccc2c(c1)OCO2)N1CCN(c2cnccn2)CC1` | 5.304% | 2.142% |
| `O=C(O)C(F)(F)F.[H][C@@]12CCN(c3ccncn3)C[C@@]1([H])O[C@@H](C(=O)NCCOC)C2` | -2.471% | -8.88% |
| `CCC(CC)c1nnc(NC(=O)N2CCC(C(N)=O)CC2)s1` | -24.84% | 2.551% |
| `Cc1cccc(-c2nc(N)nc3c2CN(C(=O)c2cc(C)n[nH]2)C3C)c1` (centres undefined) | 24.97% and 17.79% | -4.846% |
| `c1cc(CNCC2Cn3nncc3CO2)ccn1` (centres undefined) | -5.891% and -12.95% | 2.975% |
| `COCCn1ccc2ccc(C(=O)O)cc21` | 8.213% | 13.31% |
| `COc1cc(Br)cc(CNC2CCCNC2=O)c1O` (centres undefined) | -8.33% | 9.937% |
| `CCn1cc2c(n1)C(COC)CN(C(=O)c1ccccn1)C2` (centres undefined) | 10.24% | -6.123% |
| `CN(Cc1ccoc1)c1ccc(-c2nccn2C)nn1` | -12.38% | -17.29% |
| `CC(=O)Oc1ccnc(C(F)(F)F)c1C(C)=O` | 19.27% | 20.41% |
| `CCc1nccn1C1CCCN(C(=O)Cc2cn3ccccc3n2)C1` (centres undefined) | -15.09% | -6.859% |
| `CCNC(=O)N1CCN(c2nc3ccccc3n2C)CC1` | 29.36% | -0.7128% |
| `O=C(C1CCOc2ccccc2C1)N1Cc2cnn(CCO)c2C1` (centres undefined) | -16.56% | -8.178% and -7.737% |
| `O=C(O)c1cc(-c2ccoc2)cc(S(=O)(=O)N2CCSCC2)c1` | 6.509% and -1.898% | -2.535% and 7.597% |
| `CCN(CC)CCNC(=O)c1cnc(-c2ccccc2)nc1` | 1.998% and 8.576% | -5.214% |
| `CNC(=O)c1cc2ccccc2n1C` | -27.59% | -19.74% |
| `CC[C@@H]1N(Cc2ccc(OC)cc2)CCC[C@]12CCC(=O)N2CCOC.O=C(O)C(F)(F)F` | -46.45% | -14.99% |
| `CC(=O)N1CCN(C(=O)C[C@@H]2C[C@@H](C(C)C)[C@H](CC#N)C=C2C)CC1` | -5.055% and -42.67% | -12.09% |
| `[H][C@]12CC[C@]([H])(CC(=O)NC1)N2C1CCOCC1` | -16.42% | -19.23% |
| `Cc1ccc(N(C)Cc2nnnn2C2CC2)c(C)c1` | -1.181% | -19.18% |
| `O=C(NCCCO)c1cnc(-c2ccccc2)nc1O` | -23.59% | -14.53% |
| `O=C(NCC1CC1)c1nc(COc2ccc3c(c2)OCO3)no1` | 9.857% | -2.118% |
| `CCNS(=O)(=O)c1ccc2c(c1)c(=O)n(CC)c(=O)n2CC` | -15.59% | -6.292% |
| `O=C(CCc1ccc(Br)cc1)NCc1nnc[nH]1` | -4.847% and 5.551% | 9.245% |
| `Cc1ncsc1C(=O)NC1CCN(CC(=O)N(C)c2ccccc2)CC1` | -6.678% | 8.93% |
| `CC(NC(=O)CN1CCN(Cc2ccc(Br)s2)CC1)c1ccccc1` (centres undefined) | -4.94% | -18.43% |
| `O=C(O)C(F)(F)F.[H][C@]12CN(Cc3ccccc3Cl)C[C@@]1([H])OCCN(C(C)=O)C2` | 37.08% | 7.974% |
| `CC(C)c1noc(CNC2CCCN(Cc3noc(C4CC4)n3)C2)n1` (centres undefined) | 1.437% and -20.85% | -14.46% |
| `CN1CCN(C2CCN(CCOc3ccc(F)cc3)CC2)C1=O` | -9.773% | -3.648% |
| `[H][C@@]12CCN(CC(C)C)[C@@]1([H])CCN2C(=O)COC` | -10.46% and 12.43% | 3.66% |
| `Cc1cccn2c(=O)cc(CN3CCCC3Cn3cccn3)nc12` (centres undefined) | -20.37% and 3.88% | 14.64% |
| `CCOC(=O)CCNC(=O)c1cc(Cl)cc2cccnc12` | -15.1% | -20.52% |
| `CCC(C)(C)NC(=O)COC(=O)c1cc(C)ccc1NC(=O)N(C)C` | -1.011% and 0.657% | 7.211% |

Some entries from above, unchanged:

structure,Mtb glucose medium,Mtb cholesterol medium
COc1ccccc1C1CC(=O)Nc2c1c(=O)[nH]n2C(C)C (centres undefined),-21.44% and 2.794%,-1.845%
O=C(Cc1ccc2c(c1)OCO2)N1CCN(c2cnccn2)CC1,5.304%,2.142%
[H][C@@]12CCN(CC(C)C)[C@@]1([H])CCN2C(=O)COC,-10.46% and 12.43%,3.66%
CC(C)c1noc(CNC2CCCN(Cc3noc(C4CC4)n3)C2)n1 (centres undefined),1.437% and -20.85%,-14.46%
Cc1ccc(N(C)Cc2nnnn2C2CC2)c(C)c1,-1.181%,-19.18%